# Test results from patent US20080274954A1.
# By UniProt entry, the sequences of proteins in these tests, tags left out. Where a name states a change or a piece, a line headed by the entry shows the natural chain unless it says otherwise. Residues count along the entry.
# UniProt Q13153, residues 67-150: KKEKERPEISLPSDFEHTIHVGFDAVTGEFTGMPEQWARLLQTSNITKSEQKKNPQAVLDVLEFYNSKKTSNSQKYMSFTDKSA
# UniProt P60766: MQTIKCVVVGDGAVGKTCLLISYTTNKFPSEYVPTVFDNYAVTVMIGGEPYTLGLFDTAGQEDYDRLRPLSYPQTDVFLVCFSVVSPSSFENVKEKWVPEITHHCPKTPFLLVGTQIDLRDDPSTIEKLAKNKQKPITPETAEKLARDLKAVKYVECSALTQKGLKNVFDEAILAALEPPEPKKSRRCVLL
# These are yes or no findings as the source states them, for the method shown. For some assays here: In cells and extracts the contact can be indirect. Some results given as binding are weak or reduced against the parent protein; the word gives no strength.
# Columns and labels:
# [1] = target: GST-fusion protein prepared by adding a GST-tag to a binding domain of PAK-1 to an active Rho family protein, conjugated to glutathione agarose (effector bead, UPSTATE) (UniProt Q13153); experiment: PAK-1 pull down method, anti-FLAG Western blot (FIG. 2, upper panel)
# [2] = target: GST-fusion protein prepared by adding a GST-tag to a binding domain of PAK-1 to an active Rho family protein, conjugated to glutathione agarose (effector bead, UPSTATE) (UniProt Q13153); experiment: effector pull-down of cell lysate with GST-PAK-1 binding domain on glutathione agarose, anti-FLAG Western blot
substance,measurement,setting,value
Cdc42 (SEQ ID NO: 12) expressed as an N-terminal 3x FLAG-tagged protein (from UniProt P60766 1-191),binding,[1],binds
same,binding,[2],binds
